Paper PMC12848160
These are yes or no findings as the source states them, for the method shown. In cells and extracts the contact can be indirect. Some entries that bind do so weakly or less than the wild type. Sequences can lack the tags named with a protein.

Chains of the proteins cited; added tags and fusions are not shown.
UniProt P48382: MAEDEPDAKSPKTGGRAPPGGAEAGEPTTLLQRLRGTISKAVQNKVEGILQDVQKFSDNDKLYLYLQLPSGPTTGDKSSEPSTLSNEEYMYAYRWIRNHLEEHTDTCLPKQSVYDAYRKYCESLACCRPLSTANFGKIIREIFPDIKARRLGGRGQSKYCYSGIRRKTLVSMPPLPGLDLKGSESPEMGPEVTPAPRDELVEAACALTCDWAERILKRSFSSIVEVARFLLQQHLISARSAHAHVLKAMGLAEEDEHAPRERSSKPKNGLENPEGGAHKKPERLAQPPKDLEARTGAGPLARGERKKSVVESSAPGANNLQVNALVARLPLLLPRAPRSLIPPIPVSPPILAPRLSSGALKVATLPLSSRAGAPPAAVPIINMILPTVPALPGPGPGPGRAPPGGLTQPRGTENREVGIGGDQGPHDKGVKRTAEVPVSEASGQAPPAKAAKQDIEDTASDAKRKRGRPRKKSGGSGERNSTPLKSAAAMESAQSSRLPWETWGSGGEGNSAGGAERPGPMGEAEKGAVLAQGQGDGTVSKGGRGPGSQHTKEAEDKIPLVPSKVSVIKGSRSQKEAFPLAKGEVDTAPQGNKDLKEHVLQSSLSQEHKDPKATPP

Target: FLAG-RFX5 (UniProt P48382)
Experiment: co-IP; 293T cells co-transfected with FLAG-RFX5 and MED23-MYC plasmids; lysis in 1% NP-40, 10% glycerol, 135 mM NaCl, 20 mM Tris pH 8.0; anti-Flag beads, 4 °C overnight; Western blot

binding: binds
B1: MED23-MYC (protein, UniProt Q9ULK4 1-1368)
chain: METQLQSIFEEVVKTEVIEEAFPGMFMDTPEDEKTKLISCLGAFRQFWGGLSQESHEQCIQWIVKFIHGQHSPKRISFLYDCLAMAVETGLLPPRLVCESLINSDTLEWERTQLWALTFKLVRKIIGGVDYKGVRDLLKVILEKILTIPNTVSSAVVQQLLAAREVIAYILERNACLLPAYFAVTEIRKLYPEGKLPHWLLGNLVSDFVDTFRPTARINSICGRCSLLPVVNNSGAICNSWKLDPATLRFPLKGLLPYDKDLFEPQTALLRYVLEQPYSRDMVCNMLGLNKQHKQRCPVLEDQLVDLVVYAMERSETEEKFDDGGTSQLLWQHLSSQLIFFVLFQFASFPHMVLSLHQKLAGRGLIKGRDHLMWVLLQFISGSIQKNALADFLPVMKLFDLLYPEKEYIPVPDINKPQSTHAFAMTCIWIHLNRKAQNDNSKLQIPIPHSLRLHHEFLQQSLRNKSLQMNDYKIALLCNAYSTNSECFTLPMGALVETIYGNGIMRIPLPGTNCMASGSITPLPMNLLDSLTVHAKMSLIHSIATRVIKLAHAKSSVALAPALVETYSRLLVYMEIESLGIKGFISQLLPTVFKSHAWGILHTLLEMFSYRMHHIQPHYRVQLLSHLHTLAAVAQTNQNQLHLCVESTALRLITALGSSEVQPQFTRFLSDPKTVLSAESEELNRALILTLARATHVTDFFTGSDSIQGTWCKDILQTIMSFTPHNWASHTLSCFPGPLQAFFKQNNVPQESRFNLKKNVEEEYRKWKSMSNENDIITHFSMQGSPPLFLCLLWKMLLETDHINQIGYRVLERIGARALVAHVRTFADFLVYEFSTSAGGQQLNKCIEILNDMVWKYNIVTLDRLILCLAMRSHEGNEAQVCYFIIQLLLLKPNDFRNRVSDFVKENSPEHWLQNDWHTKHMNYHKKYPEKLYFEGLAEQVDPPVQIQSPYLPIYFGNVCLRFLPVFDIVIHRFLELLPVSKSLETLLDHLGGLYKFHDRPVTYLYNTLHYYEMHLRDRAFLKRKLVHAIIGSLKDNRPQGWCLSDTYLKCAMNAREENPWVPDDTYYCRLIGRLVDTMAGKSPGPFPNCDWRFNEFPNPAAHALHVTCVELMALAVSGKEVGNALLNVVLKSQPLVPRENITAWMNAIGLIITALPEPYWIVLHDRIVSVISSPSLTSETEWVGYPFRLFDFTACHQSYSEMSCSYTLALAHAVWHHSSIGQLSLIPKFLTEVLLPIVKTEFQLLYVYHLVGPFLQRFQQERTRCMIEIGVAFYDMLLNVDQCSTHLNYMDPICDFLYHMKYMFTGDSVKEQVEKIICNLKPALKLRLRFITHISKMEPAAVPPQAMNSGSPAPQSNQVPVSLPVTQ
